Results on 103 sequences are retold here after PubChem BioAssay AID1347423 (Functional Genomics Laboratory (NCATS/FGL), 2020).

The campaign covered roughly 52,000 sequences. About 210 (0.4%) were called active.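 Rule for the calls: active = gene whose silencing raises cell survival under the drug, median off-target-corrected z-score across its silencing RNAs 2 or more; inactive = the rest.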 This is one part of the list.

The assay in a line: Resistance to Poly (ADP-Ribose) Polymerase inhibitor: Gene Identification via Genome-wide siRNA Screen. Particulars: mouse BRCA2 R2336H ES cells, olaparib, CellTiter-Glo viability; hits give high values. In a few lines:
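Mouse BRCA2 R2336H ES cells were reverse-transfected with siRNA (20 nM final), treated at 48 h with 500 nM olaparib, and read by CellTiter-Glo after 72 h. Scores: MAD-based z per siRNA, median per gene, seed off-target correction.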
(In ATP-based viability assays light output follows the ATP content of the culture.)
As to GGUUGAGCUGAAGAAUGGATT against Prss11, the z-score was inactive: -1.89.

Consider GGUCAUGUCCGAGUACAACTT against Stx1a, for which the z-score was inactive: 1.41.

For GCUGCCUCUAUUUCAGUUCTT against Fbxo27, the z-score was inactive: 0.759.

As for GGAAACUGCAUUCAAGCCATT against Apod, the z-score was inactive: 1.19.

For “GGUUCAACUCUCUUUUUGATT against 4930417M19Rik”, the z-score is inactive: 0.193.

Consider GGAAUAUUUUGCUUGUGUGTT against Dnmt3a, for which the z-score is inactive: 0.841.

With “GCAUCAAAAUCGGUUUCUGTT against 4930526D03Rik”, the z-score is inactive: -0.28.

Regarding GGCCUGCUUUGUUGUAGUUTT against Olfr830, the z-score is inactive: -0.135.

On to GGAUAUUCCCAAUUACAAGTT against Plxna3, for which the z-score was inactive: -0.0571.

For the sequence CCCAGAGUGAUUACUUCAGTT against Klhl15, the z-score is inactive: -1.68.

As to GCAGUGAUAGCUUCAAUCUTT against Oasl2, the z-score was inactive: 0.417.

As to GGGCCAAAAUGGUUCCAGCTT against Cyp4b1, the z-score was inactive: 0.343.

For the sequence CCAGAUAUCUGGGUACUUUTT against Zfp353, the z-score was inactive: -0.0571.

Consider GGAGAAGAAAGCAAAAACCTT against Ing1, for which the z-score is inactive: 0.092.

Regarding GCAUCAUCACCACCAUCACTT against Pou3f3, the z-score is inactive: 0.948.

As to “GCCAUAUAUCUGCUAUCAUTT against A330019N05Rik”, the z-score is inactive: -0.0172.

For GGAGAAGAGAGGUUGGACCTT against Gal, the z-score is inactive: 0.00361.

Turning to GGUAUGAUGGGAAAUUUUUTT against Tmod2, the z-score was inactive: 1.24.

With GGUUCCUCUCAAAAUUCAATT against Gprc6a, the z-score was inactive: 0.772.

GCCCGCUCUCGGAUUUUGATT against Htr1b: the z-score was active: 2.87.

For CCAGUACAUUGAGCUGGAUTT against Rya3, the z-score is inactive: 2.85.

Regarding “GCCGCACGUUUUUGAGUUGTT against B930052A04Rik”, the z-score was inactive: 2.23.

For CCUUAUGUCUACAAUCAAATT against Plac1, the z-score was inactive: -0.676.

Turning to “GGACUUGGACCAAUAGAAGTT against 4933425O20Rik”, the z-score was inactive: -0.717.

Regarding “GCGUAGAAGACACUUAUAGTT against 2700069A02Rik”, the z-score was inactive: -2.12.

For “CCAGAAUGUUACAUGCAGGTT against 4933425M15Rik”, the z-score was inactive: -0.671.

As for CCAUACUUAUGCCAGCCUGTT against Tcfeb, the z-score was inactive: -0.681.

Consider “GGACCACUAAUUUCAAUGCTT against A730089K16Rik”, for which the z-score was inactive: -0.377.

Take GGACGGAAAGCUCAUCAUUTT against Gnb2: the z-score is inactive: -2.07.

Turning to GGAGUAGCUGAUCAAACCATT against Slc25a12, the z-score was inactive: -0.973.

Consider GGAUGCCUUCGUCAUUCUATT against AW547365, for which the z-score is inactive: 0.257.

For the sequence GCUUACUCCAGCAUAUUUCTT against Qdpr, the z-score is inactive: 0.753.

As for CGCAAGAGUUCCUUUUUUUTT against Sla, the z-score is inactive: 0.733.

Regarding “GGAAAUAAUCCGCCCACGUTT against 4933425I22Rik”, the z-score is inactive: -0.421.

Consider “GCUCAGCAGGAAAUAACAGTT against 2310015N07Rik”, for which the z-score is inactive: 0.0484.

For CCGCUACCUUUGAACGAAUTT against Ren1, the z-score was inactive: 0.282.

On to “GCCUCUAGAAUGUAUGGAGTT against 1810073M12Rik”, for which the z-score is inactive: -0.651.

CCCUGUGAAAGUGUCAUAUTT against Pigq: the z-score is inactive: -0.474.

For the sequence CCACAGAACAAUUUUCACATT against Rnase11, the z-score was inactive: 0.418.

For GGCACCACUGAUUUGAAUCTT against Arfrp2, the z-score is inactive: 1.72.

On to CCUUUACCAAUGUUGGCCCTT against Svs1, for which the z-score was inactive: 0.119.

GGUGCAGUUUCUCCUCUUUTT against Pla1a: the z-score is inactive: -1.27.

Take CCAUUGAACAACUGUCCUATT against Prkcbp1: the z-score is inactive: 1.32.

Consider GGAGUUUCUAGAACUCUCATT against Zcchc5, for which the z-score was inactive: 0.166.

In the case of GGGUCCUAAAAAUUCAAUUTT against Decr2, the z-score was inactive: 0.705.

Regarding GGCUACUGGAGCAAGUUUATT against Apoc3, the z-score is inactive: 0.557.

For the sequence CCUUCCUCGUGAUUCGCUATT against Lman2l, the z-score was inactive: 2.11.

As to GGUGAUGGUGUCCUAUAAATT against Hspa1l, the z-score is inactive: -1.11.

Consider GGCUGAUUAUAAACAUGACTT against Nrap, for which the z-score was inactive: 0.00719.

For the sequence GCAGAUUUGACAUGGAAAATT against Zp2, the z-score is inactive: 2.08.

Regarding GGGUGUCUUUCCUGUGUGATT against AW209059, the z-score was inactive: 0.795.

As to GGUUUUGUGCCUUAACAGUTT against Abcc4, the z-score was inactive: 1.2.

In the case of GGAUAUUCCCAAGUCUUUATT against Cyp2e1, the z-score was inactive: 1.98.

With “GGUAGAAAAGAAUAUUGAGTT against 4930413O22Rik”, the z-score was inactive: 1.45.

Take “GCACAAGUCUAAACAGCUGTT against 5830467P10Rik”: the z-score is inactive: -0.649.

With “CCUUCUUGUGAAUUUACCUTT against B130003F20Rik”, the z-score is inactive: 0.516.

Regarding CCACUCAAGAUCGAUACCUTT against Fgd1, the z-score is inactive: -0.28.

Regarding GCCUAAGCCUACCAAACGATT against C77668, the z-score was inactive: -1.19.

Take “GGUUUUAAAGAAGACGGUATT against 1110004E09Rik”: the z-score is inactive: -2.08.

“GCGAUCGAUGUCGUACUCUTT against 2610207I05Rik”: the z-score is inactive: 1.42.

For the sequence GGAGACGAGAAACAAACCCTT against Diap2, the z-score was inactive: 0.952.

GCGGUUAGCACAAUGUGAATT against Ppp2cb: the z-score was inactive: -0.0473.

As to GCCCAUUAUGCAAGAAUAATT against Gsbs, the z-score is inactive: -2.28.

For “GGGACUUUGGGAAGUGAUGTT against 2700023J09Rik”, the z-score was inactive: -1.05.

Turning to GGAUUGUGAUUUUCAUUGATT against P2y5, the z-score was inactive: -0.597.

For GCUGAAGUUCGUACCCUACTT against Osbp2, the z-score is inactive: -0.533.

As to GCUUUUAUUGGCCACCCUGTT against BC026996, the z-score was inactive: 0.0955.

With GGGAAAACCCUUUAUUCAGTT against Tmod4, the z-score was inactive: 0.627.

For the sequence GGAAGCCUAGUUUUUUUAATT against Csnk2a1, the z-score was inactive: 0.629.

In the case of “GGGUAUAUUUCCUUCCAGCTT against 6330411N01Rik”, the z-score is inactive: 1.48.

For GGCUCUUUGCGAAAAUGGATT against Rnaseh2a, the z-score is inactive: -0.522.

Regarding GGUGCAUAUGAGGUAUAUUTT against Nt5e, the z-score was inactive: -0.321.

On to GGGUGAGCAGUACAUUCAATT against BC026778, for which the z-score is inactive: -0.364.

“CCUGACUUGCCAUGUAAACTT against F830045P16Rik”: the z-score is inactive: 0.556.

With GGGACGAUGUCACUAUUAATT against Myrip, the z-score was inactive: -1.14.

Take “GGAGUUCCUAUGAUCAAAUTT against 1700023O11Rik”: the z-score is inactive: 0.876.

As for GGAUGCAGAAGCAACUUAATT against AA986860, the z-score is inactive: -0.959.

As for “GACUUUUCAGGCAUACCUATT against E130113K08Rik”, the z-score is inactive: 1.71.

As for CCAUGGUUGCCAUAUAUUUTT against Pex19, the z-score is inactive: 0.785.

CCUCCUUCACCAACUUAAATT against Rab33a: the z-score is inactive: 2.4.

On to GGAGAGAACAUUAAAGAUATT against Mtmr2, for which the z-score is inactive: -0.0856.

As for “GGUAACAUGGUUUUAACAGTT against C030003D03Rik”, the z-score was inactive: -0.108.

For the sequence GGUUAUAUGGACCCUAAAATT against Agtrl1, the z-score was inactive: -1.75.

In the case of “GGCUCUUUGAUCACCAUUGTT against 4933403F05Rik”, the z-score was inactive: -0.894.

Turning to GGUACAAAGUGAAAUAGCUTT against Rnf34, the z-score was inactive: 0.213.

Consider GCAGGAGUCAAAUUUUCUATT against BC030440, for which the z-score was inactive: 1.06.

GGUAUCAGCUUCAGUAGCCTT against BC030314: the z-score was inactive: -0.453.

As to GGACAUUUCUGACAAAAAGTT against Cab39, the z-score is inactive: -0.985.

For the sequence GGAUAAGAAAACUGAAGAATT against Tex16, the z-score was inactive: -1.23.

As for GGAAGAAUUAAUGAAUACCTT against Ncoa1, the z-score is inactive: -0.194.

On to GGAGUGUGGAAUUUAAUACTT against Cstf2t, for which the z-score was inactive: 0.162.

GGCAGUUGAAUUGUUUGAGTT against Dact1: the z-score is inactive: 0.618.

Regarding GCUCUACGAAAAGAAAAUCTT against Emd, the z-score was inactive: 0.159.

For CCUUAUGAUCCCAACUUUUTT against Hnrpk, the z-score is inactive: -2.36.

In the case of CCUGCUCAUCAUUCUUCUCTT against Olfr50, the z-score was inactive: -0.459.

As for GCAACAUAUCGGCAGAUGATT against Cpsf3, the z-score was inactive: -1.53.

For the sequence “GGACAUUCAUUCACCUUAUTT against 2610209A20Rik”, the z-score was inactive: -1.48.

For the sequence “GGAUUUCUUUGUGGAGCCCTT against A930010I02”, the z-score was inactive: -1.22.

For GCAAGUGUUAGAACACAAGTT against Cish, the z-score was inactive: -0.299.

As to GCUCGUAGCUUUCAACAAATT against Nope, the z-score is inactive: 0.489.

Take “GGAGAAGUGAUUAAAAUCATT against E430004N04Rik”: the z-score is inactive: -0.648.

Consider CCUCCUCUAUCAAGACAUUTT against Txnl4b, for which the z-score was inactive: 0.394.

Turning to CGCAAAGAGGUAAAUGAUCTT against Rps6ka6, the z-score was inactive: -0.256.
